The values below come from publication doi:10.1101/708180.

The chains behind the UniProt entries cited, without tags or fusion partners. Where a name states a change or a piece, a line headed by the entry shows the natural chain unless it says otherwise. A line that says so, or that is headed by a name, gives the form on record, which may keep a tag or linker.
UniProt O95817: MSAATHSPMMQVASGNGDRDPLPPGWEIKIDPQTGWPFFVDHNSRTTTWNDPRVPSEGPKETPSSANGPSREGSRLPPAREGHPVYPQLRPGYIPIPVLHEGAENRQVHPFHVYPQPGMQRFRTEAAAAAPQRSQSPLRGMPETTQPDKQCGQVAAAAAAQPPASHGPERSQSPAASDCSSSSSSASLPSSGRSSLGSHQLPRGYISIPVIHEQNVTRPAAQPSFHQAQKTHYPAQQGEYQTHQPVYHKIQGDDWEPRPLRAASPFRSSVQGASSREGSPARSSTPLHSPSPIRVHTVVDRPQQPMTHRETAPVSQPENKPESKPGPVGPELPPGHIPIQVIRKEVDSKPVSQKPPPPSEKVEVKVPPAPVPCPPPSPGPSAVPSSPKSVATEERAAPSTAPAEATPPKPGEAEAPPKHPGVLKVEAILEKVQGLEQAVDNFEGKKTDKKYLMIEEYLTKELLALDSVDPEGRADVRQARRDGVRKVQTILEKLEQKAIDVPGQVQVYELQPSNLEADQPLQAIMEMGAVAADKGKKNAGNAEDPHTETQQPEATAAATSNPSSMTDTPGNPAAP
BAG3-eGFP IPV mutant (both IPV motifs replaced with GPG) (O95817, form named): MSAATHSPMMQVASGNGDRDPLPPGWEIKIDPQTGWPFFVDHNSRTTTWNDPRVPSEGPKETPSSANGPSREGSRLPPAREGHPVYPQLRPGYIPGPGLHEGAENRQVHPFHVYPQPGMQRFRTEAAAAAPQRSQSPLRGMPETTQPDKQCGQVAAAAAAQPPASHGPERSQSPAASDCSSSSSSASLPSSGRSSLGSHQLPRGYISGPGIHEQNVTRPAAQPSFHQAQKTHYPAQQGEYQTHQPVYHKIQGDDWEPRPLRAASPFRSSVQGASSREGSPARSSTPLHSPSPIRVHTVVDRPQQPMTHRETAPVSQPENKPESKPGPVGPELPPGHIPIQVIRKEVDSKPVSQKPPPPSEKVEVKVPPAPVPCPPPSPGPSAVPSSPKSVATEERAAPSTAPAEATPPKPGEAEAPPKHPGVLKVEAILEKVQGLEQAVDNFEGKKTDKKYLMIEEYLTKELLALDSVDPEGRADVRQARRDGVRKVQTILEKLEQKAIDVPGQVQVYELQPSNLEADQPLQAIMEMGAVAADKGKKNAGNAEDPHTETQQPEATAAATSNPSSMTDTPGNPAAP
UniProt P04792: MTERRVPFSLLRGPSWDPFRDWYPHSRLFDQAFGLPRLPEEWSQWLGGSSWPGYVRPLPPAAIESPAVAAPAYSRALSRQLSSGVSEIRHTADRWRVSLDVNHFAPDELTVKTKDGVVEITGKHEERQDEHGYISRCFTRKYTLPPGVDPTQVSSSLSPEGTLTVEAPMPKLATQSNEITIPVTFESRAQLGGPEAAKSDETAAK

These are yes or no findings as the source states them, for the method shown. For some of these results: Binding seen in cells or lysates may run through a third protein. Some binding calls cover weakened binding; strength is not graded here.

The target of assay [1] is BAG3-eGFP (Bcl2-associated athanogene 3), wild type (human) (UniProt O95817). Description: co-IP.
Assay [2] deals with BAG3-eGFP IPV mutant (both IPV motifs replaced with GPG) (human) (UniProt O95817). Description: co-IP.
In assay [3] the target is V5-epitope-tagged HSP27 (HSPB1-V5), P182L mutant (human) (UniProt P04792). As to the kind of experiment: sucrose gradient fractionation.
For assay [4] the target is unchanged. As to the kind of experiment: co-IP.
Assay [5] addresses V5-epitope-tagged HSP27 (HSPB1-V5), wild type (human) (UniProt P04792). As to the kind of experiment: co-IP.

As to “V5-epitope-tagged HSP27 (HSPB1-V5), P182L mutant (from UniProt P04792 1-205)”, the binding result is recorded as “binds” in assay [1], “no binding” in assay [2] and “binds” in assay [3].
“V5-epitope-tagged HSP27 (HSPB1-V5), wild type (from UniProt P04792 1-205)”: the binding result in assay [1] was “binds”; in assay [2] it was “no binding”.
“BAG3-eGFP (Bcl2-associated athanogene 3), wild type (from UniProt O95817 1-575)”: the binding entry in assay [4] and in assay [5] was “binds” throughout.
